Reference: PMC12871931, “The importin‐alpha superfamily engages in ethylene signaling by shuttling ETHYLENE INSENSITIVE 2 from the endoplasmic reticulum to the nucleus” (The Febs Journal, 2025)
Results are given in words; binding and its absence hold for the method and conditions named. Binding seen in cells or lysates may run through a third protein.

Chains of the proteins cited; added tags and fusions are not shown. Lines headed by an entry give the natural chain unless they say otherwise; changes in a name come on top.
UniProt Q9S814: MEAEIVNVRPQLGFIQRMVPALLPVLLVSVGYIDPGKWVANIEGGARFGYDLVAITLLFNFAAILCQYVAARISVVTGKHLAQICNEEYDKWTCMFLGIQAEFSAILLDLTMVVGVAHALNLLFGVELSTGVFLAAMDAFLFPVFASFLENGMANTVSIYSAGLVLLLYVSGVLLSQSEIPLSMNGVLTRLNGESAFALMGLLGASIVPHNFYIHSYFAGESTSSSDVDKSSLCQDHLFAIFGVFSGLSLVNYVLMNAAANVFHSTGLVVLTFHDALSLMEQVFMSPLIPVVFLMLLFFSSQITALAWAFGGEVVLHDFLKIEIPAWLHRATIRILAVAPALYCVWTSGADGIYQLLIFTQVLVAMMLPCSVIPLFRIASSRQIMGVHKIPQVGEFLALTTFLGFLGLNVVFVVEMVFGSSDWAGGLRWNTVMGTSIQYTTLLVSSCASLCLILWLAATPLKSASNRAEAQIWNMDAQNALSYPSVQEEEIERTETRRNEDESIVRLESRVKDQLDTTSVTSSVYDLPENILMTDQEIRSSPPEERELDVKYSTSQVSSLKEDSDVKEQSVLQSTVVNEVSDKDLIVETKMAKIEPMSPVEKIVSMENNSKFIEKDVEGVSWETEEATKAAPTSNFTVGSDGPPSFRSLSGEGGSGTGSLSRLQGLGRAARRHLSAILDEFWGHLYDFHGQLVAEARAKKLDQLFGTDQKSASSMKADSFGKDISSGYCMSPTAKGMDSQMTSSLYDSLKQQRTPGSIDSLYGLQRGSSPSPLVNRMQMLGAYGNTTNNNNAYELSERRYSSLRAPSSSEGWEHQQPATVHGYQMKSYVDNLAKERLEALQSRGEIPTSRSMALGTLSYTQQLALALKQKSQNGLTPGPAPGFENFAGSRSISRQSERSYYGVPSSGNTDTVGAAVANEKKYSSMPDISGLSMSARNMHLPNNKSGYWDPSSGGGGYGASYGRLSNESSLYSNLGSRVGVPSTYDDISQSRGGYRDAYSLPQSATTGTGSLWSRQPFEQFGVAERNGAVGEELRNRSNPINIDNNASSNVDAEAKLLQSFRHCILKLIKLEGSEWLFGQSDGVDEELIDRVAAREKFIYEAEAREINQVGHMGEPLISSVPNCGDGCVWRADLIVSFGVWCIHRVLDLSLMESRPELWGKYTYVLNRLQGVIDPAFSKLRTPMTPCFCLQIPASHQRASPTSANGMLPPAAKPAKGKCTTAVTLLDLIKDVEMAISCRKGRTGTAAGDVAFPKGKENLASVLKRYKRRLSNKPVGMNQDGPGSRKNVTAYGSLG
UniProt O04294: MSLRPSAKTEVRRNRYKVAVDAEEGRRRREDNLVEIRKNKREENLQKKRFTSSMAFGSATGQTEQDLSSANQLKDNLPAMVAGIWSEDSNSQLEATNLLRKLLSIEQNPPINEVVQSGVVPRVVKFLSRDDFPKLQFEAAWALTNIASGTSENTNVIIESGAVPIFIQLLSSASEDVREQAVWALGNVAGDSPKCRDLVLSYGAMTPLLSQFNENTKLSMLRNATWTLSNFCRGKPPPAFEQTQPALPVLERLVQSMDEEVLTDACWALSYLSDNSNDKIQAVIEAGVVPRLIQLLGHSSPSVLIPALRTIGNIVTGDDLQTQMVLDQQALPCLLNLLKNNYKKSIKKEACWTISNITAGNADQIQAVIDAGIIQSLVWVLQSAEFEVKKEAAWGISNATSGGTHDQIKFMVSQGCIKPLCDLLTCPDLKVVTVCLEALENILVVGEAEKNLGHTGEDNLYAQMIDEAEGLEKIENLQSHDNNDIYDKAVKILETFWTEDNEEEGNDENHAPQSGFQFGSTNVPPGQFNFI

Molecular target: EIN2C^479–1294ΔNLS fused to Cerulean (Arabidopsis thaliana) (UniProt Q9S814)
Test: FRET or BRET; in planta FLIM-FRET in transiently transformed N. benthamiana epidermal leaf cells; Cerulean fusion as donor, YFP fusions as acceptors; cytosol, ER or nucleus (IMPα5-YFP and IMPα6-YFP: nuclei only)

binding: no binding
Substance: IMPα3 fused to YFP (from UniProt O04294 1-531)
